Values from PubChem BioAssay AID504808 (Drosophila RNAi Screening Center, 2011)

- Test: 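Chromatin factors that keep E2F targets switched off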 (primary screen)
- Cells: Drosophila S2 cells
- Reagents: long dsRNA against Drosophila genes
- Read-out: 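Dual luciferase plate measurements; E2F-specific signal taken as firefly over Renilla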
- Reading the numbers: E2F firefly: higher = more E2F reporter activity; Renilla normaliser: higher = more normaliser reporter signal
- Rule for the call: 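Called active if the normalised E2F reporter went up by over 50%; the cutoff is arbitrary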
In all, the deposit lists about 21,000 reagents; shown is a random part of those with a known target gene and a result. Of all reagents, 18 (0.084%) got an active call. 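Raw counts without plate normalisation, one of two replicates; the ratio scores behind the calls were not deposited.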 Entries without a mark were called inactive. No sequences are given here. Not given: the amount of reagent, the time to read-out.

What did the screen give for Gr43a (Gustatory receptor 43a) [DRSC06658]?
E2F firefly, rep 1: 1.35e5; Renilla normaliser, rep 1: 4726

Which result is listed for CG11597 [DRSC09847]?
E2F firefly, rep 1: 68517; Renilla normaliser, rep 1: 3697

What did the screen give for Or2a (Odorant receptor 2a) [DRSC18690]?
E2F firefly, rep 1: 1.11e5; Renilla normaliser, rep 1: 5582

What did the screen give for CG9536 [DRSC03254]?
E2F firefly, rep 1: 92753; Renilla normaliser, rep 1: 3935

For PheRS-m (Phenylalanyl-tRNA synthetase, mitochondrial) [DRSC05915], how do the results read?
E2F firefly, rep 1: 3088; Renilla normaliser, rep 1: 185

What is on record for Usp8 (Ubiquitin specific protease 8) [DRSC15876]?
E2F firefly, rep 1: 62441; Renilla normaliser, rep 1: 2863

For CG14454 [DRSC11711], what was measured?
E2F firefly, rep 1: 1.05e5; Renilla normaliser, rep 1: 6476

With CG13082 [DRSC02186], what was measured?
E2F firefly, rep 1: 89721; Renilla normaliser, rep 1: 4034

What did the screen give for CG7632 [DRSC11842]?
E2F firefly, rep 1: 1.19e5; Renilla normaliser, rep 1: 7800

With Pits (Protein interacting with Ttk69 and Sin3A) [DRSC19385], what does the deposit list?
E2F firefly, rep 1: 1.34e5; Renilla normaliser, rep 1: 8698

For Pits (Protein interacting with Ttk69 and Sin3A) [DRSC19812], what was measured?
E2F firefly, rep 1: 1.39e5; Renilla normaliser, rep 1: 6801

For NtR [DRSC04628], what was measured?
E2F firefly, rep 1: 1.05e5; Renilla normaliser, rep 1: 4398

Single entries from the entries so far.
Result for PheRS-m (Phenylalanyl-tRNA synthetase, mitochondrial) [DRSC05915] under “Renilla normaliser, rep 1”: 185
For “Renilla normaliser, rep 1”, Pits (Protein interacting with Ttk69 and Sin3A) [DRSC19812] shows 6801
